The experiment concerns the target T1, EpCAM protein (960-EP-050 from RD Systems) (UniProt P16422).
T1 sequence (looked up): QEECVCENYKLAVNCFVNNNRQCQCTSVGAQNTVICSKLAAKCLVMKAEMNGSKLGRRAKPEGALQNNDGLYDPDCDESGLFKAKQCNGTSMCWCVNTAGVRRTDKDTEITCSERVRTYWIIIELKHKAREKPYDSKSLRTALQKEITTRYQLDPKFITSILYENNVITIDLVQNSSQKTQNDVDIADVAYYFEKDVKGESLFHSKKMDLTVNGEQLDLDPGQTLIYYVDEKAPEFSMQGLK
In words: GMR sensor, EGFR captured by EpCAM, detected with anti-EGFR antibody-MNP.

No constants are given. Whether binding was seen depends on the method and setting. Some binding calls cover weakened binding; strength is not graded here.

In the case of “EGFR protein (from UniProt P00533 25-645) (receptor)”, the binding entry is listed as “binds”.

The record behind these values is patent US20110223612A1.
